Test system: ferrous RufO
Test: Stopped-flow transient kinetics of O2 and •NO binding to ferrous RufO
Settings: 4 °C, pH 8.0
Procedure: 5 Transient kinetics of ferrous RufO binding to O2 and ^•NO. Spectral changes following the rapid mixing of 3.3 μM ferrous RufO bound to MRYLH with (A) 18 μM O2 and (C) 70 μM ^•NO over 0.2 s. The black-to-red spectral transitions represent the formation of (A) a ferric-superoxo intermediate and (C) a ferrous-nitrosyl complex. Insets show the time-dependent absorbance changes at 438 nm (the most pronounced shift), fitted using single exponential equations to determine rate constants (red trace). Dependence of rate constant as a function of gas concentration on (B) O2 and (D) ^•NO binding to ferrous RufO alone (blue) and peptide-bound RufO (red). Second-order rate constants were determined through linear fitting. TEXT PRINTED IN THE PICTURE: (A) + O2: kobs = 74.3 s^-1 | (B) RufO alone: k1 = 3.55 μM^-1 s^-1 | (B) peptide-bound: k1 = 3.83 μM^-1 s^-1 | (C) + •NO: kobs = 107.4 s^-1 | (D) RufO alone: k1 = 4.12 μM^-1 s^-1 | (D) peptide-bound: k1 = 2.35 μM^-1 s^-1
Stopped-flow spectroscopic data were collected using an Applied Photophysics SX20 stopped-flow system equipped with a photodiode array detector. The system was maintained in an anaerobic chamber (O2 < 1 ppm) and all sample preparation was done anaerobically. Measurements were performed at 4 °C. All samples were prepared in a buffer containing 50 mM Tris-HCl and 100 mM NaCl, pH 8.0. RufO was prereduced with a minimal amount of sodium dithionite. The final mixed concentrations of RufO and MRYLH (where applicable) were 3.3 and 24 μM, respectively. Solutions of varying O2 concentrations were prepared by diluting air-saturated buffer with anaerobic buffer. The concentrations of O2 in the air-saturated buffer were measured with an Oxygraph+ oxygen electrode (Hansatech). To generate ^•NO-containing solutions, 0.5 mM DEA NONOate (≥98%, Cayman Chemical) was incubated in anaerobic buffer for 4 h to ensure complete ^•NO release. The ^•NO concentrations were quantified based on a hemoglobin assay, and further dilutions were made with anaerobic buffer immediately prior to mixing. Experimental data were analyzed by the ProK software package from Applied Photophysics. The second-order rate constants were obtained from linear fitting, with the resulting equations: y = 3.55x + 54.4 for the mixing of RufO with O2, y = 3.83x + 6.5 for the ES complex with O2, y = 4.12x −158.0 for RufO with ^•NO, and y = 2.35x – 58.9 for the ES complex with ^•NO.
Figure S9. Transient kinetics of ferrous RufO alone binding to O2 and •NO Spectral changes following the rapid mixing of 3.3 μM ferrous RufO with (A) 18 μM O 2 and (B) μM •NO over 0.1 s. […] Insets show the time-dependent absorbance changes at 438 nm (the most pronounced shift), fitted using first-order exponential equations to determine rate constants (red trace). […]

O=O [O2]
Soret peak of complex formed (ferrous RufO alone): 428 nm | Soret peak of complex formed (peptide-bound ferrous RufO): 432 nm

nitric oxide [•NO]
Soret peak of complex formed (ferrous RufO alone): 439 nm | Soret peak of complex formed (peptide-bound ferrous RufO): 437 nm
